# Where “and” joins values, the source holds several entries; their conditions need not be identical. Identical values can stand only once. Counter-ions that a name gives are not always drawn.
# Tests used:
# [1] = test system: mice; assay: Locomotor activity in mice (photoresistor actometers); assay type: in vivo; settings: for Influence on locomotor activity, 1-min session / Influence on locomotor activity, 4-min session: all doses tested
# [2] = test system: rats; assay: Exploratory activity in rats (EPM apparatus); assay type: in vivo; settings: 5-min test
# [3] = pCPA 200 mg/kg i.p. once daily for 3 days, Table 6
# [4] = 1.25 mg/kg i.p. 30 min before test
# [5] = 2.5 mg/kg i.p. 30 min before test
# [6] = 1.25 mg/kg i.p. 30 min before test, Table 3
# [7] = 2.5 mg/kg i.p. 30 min before test, Table 3
# [8] = 2.5 mg/kg i.p. 30 min before test, Table 6, 2.5 mg/kg
# [9] = 5 mg/kg i.p. 30 min before test, Table 3
# [10] = 5 mg/kg i.p. 30 min before test
# [11] = WAY-100635 0.1 mg/kg s.c., Table 6, 0.1 mg/kg
smiles,measurement,setting,value
"N[C@@H](Cc1ccc(Cl)cc1)C(=O)O (racemic) [pCPA, p-Chlorophenylalanine, reference compound]","Number of crossings, 1 min",[1]; [3],88 and 99
same,"Number of crossings, 4 min",[1]; [3],408 and 370
"CN1C(=O)CN=C(c2ccccc2)c2cc(Cl)ccc21 [Diazepam, diazepam, reference compound]",Total arm entries,[2]; [4],15.8
same,Total distance travelled,[2]; [4],29.1 m
same,Total arm entries,[2]; [5],17.0
same,Total distance travelled,[2]; [5],31.9 m
"COc1ccccc1N1CCN(CCOCCOc2c(C)cccc2C)CC1 [HBK-14, 1-{2-[2-(2,6-dimethlphenoxy)ethoxy]ethyl}-4-(2-methoxyphenyl)piperazynine hydrochloride]","Number of crossings, 1 min",[1]; [6],93
same,"Number of crossings, 4 min",[1]; [6],488
same,Number of crossings,"[1]; 1.25 mg/kg i.p. 30 min before test, Table 5, 1.25 mg/kg",356 and 511
same,"Number of crossings, 1 min",[1]; [7],95
same,"Number of crossings, 4 min",[1]; [7],542
same,"Number of crossings, 1 min",[1]; [8],99 and 105
same,"Number of crossings, 4 min",[1]; [8],363 and 344
same,"Number of crossings, 1 min",[1]; [9],98
same,"Number of crossings, 4 min",[1]; [9],424
same,"Influence on locomotor activity, 1-min session",[1],Neither HBK-14 nor HBK-15 influenced locomotor activity
same,"Influence on locomotor activity, 4-min session",[1],Neither HBK-14 nor HBK-15 influenced locomotor activity
same,Total arm entries,[2]; [4],23.0
same,Total distance travelled,[2]; [4],36.1 m
same,Total arm entries,[2]; [5],20.7
same,Total distance travelled,[2]; [5],30.0 m
same,Total arm entries,[2]; [10],34.8
same,Total distance travelled,[2]; [10],39.1 m
"COc1ccccc1N1CCN(CCOCCOc2c(C)cccc2Cl)CC1 [HBK-15, 2-[2-(2-chloro-6-methylphenoxy)ethoxy]ethyl-4-(2-methoxyphenyl)piperazynine dihydrochloride]","Number of crossings, 4 min","[1]; 0.625 mg/kg i.p. 30 min before test, Table 3",531
same,Number of crossings,"[1]; 0.625 mg/kg i.p. 30 min before test, Table 5, 0.625 mg/kg",399 and 349 and 477
same,"Number of crossings, 1 min",[1]; [6],108
same,"Number of crossings, 4 min",[1]; [6],459
same,"Number of crossings, 4 min","[1]; 1.25 mg/kg i.p. 30 min before test, Table 6",360
same,"Number of crossings, 1 min",[1]; [7],98
same,"Number of crossings, 4 min",[1]; [7],411
same,"Number of crossings, 4 min","[1]; 2.5 mg/kg i.p. 30 min before test, Table 6",356
same,"Number of crossings, 1 min",[1]; [8],99 and 93
same,"Number of crossings, 1 min",[1]; [9],103
same,"Number of crossings, 4 min",[1]; [9],442
same,"Influence on locomotor activity, 1-min session",[1],Neither HBK-14 nor HBK-15 influenced locomotor activity
same,"Influence on locomotor activity, 4-min session",[1],Neither HBK-14 nor HBK-15 influenced locomotor activity
same,Total arm entries,[2]; [5],18.2
same,Total distance travelled,[2]; [5],36.3 m
same,Total arm entries,[2]; [10],16.8
same,Total distance travelled,[2]; [10],30.9 m
"COc1ccccc1N1CCN(CCN(C(=O)C2CCCCC2)c2ccccn2)CC1.Cl.Cl.Cl [WAY-100635, N-{2-[4-(2-methoxyphenyl)-1-piperazinyl]ethyl}-N-(2-pyridinyl)cyclohexanecarboxamide trihydrochloride, reference compound]","Number of crossings, 1 min",[1]; [11],95 and 107
same,"Number of crossings, 4 min",[1]; [11],402 and 454
"CC(NC(C)(C)C)C(=O)c1cccc(Cl)c1 (stereo not drawn) [bupropion, reference compound]",Number of crossings,"[1]; 2.5 mg/kg i.p. 30 min before test, Table 5, 2.5 mg/kg",418 and 409
"CNCCC(Oc1ccc(C(F)(F)F)cc1)c1ccccc1 (stereo not drawn) [fluoxetine, reference compound]",Number of crossings,"[1]; 10 mg/kg i.p. 30 min before test, Table 5, 10 mg/kg",488 and 393
"CCOc1ccccc1OC(c1ccccc1)C1CNCCO1 (stereo not drawn) [reboxetine, reference compound]",Number of crossings,"[1]; 5 mg/kg i.p. 30 min before test, Table 5, 5 mg/kg",393 and 366
